Assay results: article PMC5537237
These are yes or no findings as the source states them, for the method shown. Some binding calls cover weakened binding; strength is not graded here.

Sequences of proteins named here, by UniProt entry; tags and fusion partners are left off.
UniProt P07355: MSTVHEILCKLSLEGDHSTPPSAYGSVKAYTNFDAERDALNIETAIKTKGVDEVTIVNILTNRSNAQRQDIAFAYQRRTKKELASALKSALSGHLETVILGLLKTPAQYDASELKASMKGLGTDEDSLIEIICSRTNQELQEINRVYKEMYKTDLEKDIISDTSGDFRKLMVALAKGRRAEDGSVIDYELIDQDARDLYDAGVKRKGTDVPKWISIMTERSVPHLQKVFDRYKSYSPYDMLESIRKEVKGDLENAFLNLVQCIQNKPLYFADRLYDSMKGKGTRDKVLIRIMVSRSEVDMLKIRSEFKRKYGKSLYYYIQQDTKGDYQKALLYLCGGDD

Biological target: His-tagged S100A10 (co-expressed with annexinA2) (UniProt P60903)
Assay: SEC-MALS; 500 µg of A2t purified from co-expression injected on a Superdex 200 column; MALLS, composition of fractions confirmed by western blotting and SDS-PAGE; both purified

binding: binds
Substance: Flag-tagged AnnexinA2 (co-expressed with S100A10) (from UniProt P07355 1-339)
